Data as given in patent US20090075929A1.
Results are given in words; binding and its absence hold for the method and conditions named. Some results given as binding are weak or reduced against the parent protein; the word gives no strength.

The chains behind the UniProt entries cited, without tags or fusion partners. Residues count along the entry.
UniProt O14763, residues 56-440: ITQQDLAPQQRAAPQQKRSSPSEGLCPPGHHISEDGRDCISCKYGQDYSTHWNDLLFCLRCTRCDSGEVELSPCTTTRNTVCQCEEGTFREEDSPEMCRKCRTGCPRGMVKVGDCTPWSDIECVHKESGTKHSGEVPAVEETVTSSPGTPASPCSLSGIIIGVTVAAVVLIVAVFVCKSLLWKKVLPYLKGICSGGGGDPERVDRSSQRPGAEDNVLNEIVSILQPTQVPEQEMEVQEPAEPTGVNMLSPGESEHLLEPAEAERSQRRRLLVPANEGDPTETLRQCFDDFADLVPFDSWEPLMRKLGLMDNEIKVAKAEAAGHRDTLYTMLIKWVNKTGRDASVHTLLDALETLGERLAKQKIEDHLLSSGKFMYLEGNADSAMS
UniProt Q13158: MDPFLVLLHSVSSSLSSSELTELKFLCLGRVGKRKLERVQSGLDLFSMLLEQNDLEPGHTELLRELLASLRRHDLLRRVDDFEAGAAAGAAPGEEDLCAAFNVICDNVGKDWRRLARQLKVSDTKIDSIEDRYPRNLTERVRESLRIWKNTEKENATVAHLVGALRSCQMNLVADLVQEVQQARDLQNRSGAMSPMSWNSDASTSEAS

Biological target: DR5 (death receptor 5), endogenous in PA-1 cells (UniProt O14763)
Assay: IP of DR5 from PA-1 lysates, immunoblot for FADD

For “FADD, endogenous (from UniProt Q13158 1-208)”, the binding was “binds”.
